No constants are given. Whether binding was seen depends on the method and setting. Binding calls can cover weak binding; strength is not graded here. Where a sequence is shown, tags or fusion partners need not be part of it. For some assays here: In cells and extracts the contact can be indirect.
How the values were obtained:
[1] = target: T1, GST-fused pK15 cytoplasmic tail (pK15 CT WT), phosphorylated in vitro by Src (Kaposi Sarcoma-associated herpesvirus (KSHV, HHV-8)) (UniProt Q9QR69); assay: AlphaScreen or HTRF; AlphaLISA: GST-pK15 proteins phosphorylated by 2xStrep-Src and His-tagged PLCγ1 fragments, 300 nM each, glutathione donor and Ni chelate acceptor beads, room temperature, 1xPBS, 0.5% BSA, 0.01% Tween 20; both purified
T1 sequence (chain, phosphotyrosine at Y481 (dominant band) and Y431 (minor band), in vitro by Src): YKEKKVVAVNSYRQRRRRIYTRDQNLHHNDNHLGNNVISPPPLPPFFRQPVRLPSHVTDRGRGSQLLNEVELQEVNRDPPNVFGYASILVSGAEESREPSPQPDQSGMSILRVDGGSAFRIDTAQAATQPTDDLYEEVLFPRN

[2] = target: T1, GST-fused pK15 cytoplasmic tail (pK15 CT WT), phosphorylated in vitro by Src (Kaposi Sarcoma-associated herpesvirus (KSHV, HHV-8)); assay: pull-down; GST-pK15 CT proteins on glutathione beads, phosphorylated in vitro by Src or left unphosphorylated, incubated overnight at 4°C with HEK-293T lysate (transfected or untransfected) in IP buffer (50 mM Tris pH7.6, 60 mM NaCl) with phosphatase inhibitors; Western blot; only the target purified

| Substance | binding [1] | binding [2] |
| --- | --- | --- |
| His-tagged purified PLCγ1 cSH2 domain (domain or fragment) | binds | – |
| His-tagged purified PLCγ1 cSH2 domain R694L (domain or fragment) | no binding (tested: 300 nM of each protein) | – |
| His-tagged purified PLCγ1 tandem SH2 (tSH2) domain (domain or fragment) | binds | – |
| S-tagged PLCγ1 cSH2 domain, transfected (domain or fragment) | – | binds |
| His-tagged purified PLCγ1 nSH2 domain (domain or fragment) | no binding (tested: 300 nM of each protein) | – |

From paper PMC8244865, “Recruitment of phospholipase Cγ1 to the non-structural membrane protein pK15 of Kaposi Sarcoma-associated herpesvirus promotes its Src-dependent phosphorylation” (PLoS Pathogens, 2021)
